{"source": "PubChem BioAssay AID504444", "about": "(National Center for Advancing Translational Sciences (NCATS), 2011)", "note": "Several values for one entry are separate records, joined by “and”; a condition that tells them apart may be missing. Identical values can stand only once. The campaign covered roughly 360,000 compounds. About 7,500 (2.1%) were called active. The inconclusive results got no clear call from the source; some entries with a clear call stand among them for comparison. The call rests on the fitted dose curve; in most records, active means well fitted inhibition curve with a large enough effect; inconclusive means small, poorly fitted or top-dose-only effect, or effect the other way; inactive means flat fitted curve, though single readings scatter. Potencies of inconclusive entries are doubtful fits and often do not repeat. On the % scale 0 is the no-effect control and ±100 the full control effect; potency means the concentration at half of the fitted maximal effect.", "data": [{"experiment": "Nrf2 qHTS screen for inhibitors; further: nearly all actives have a fitted effect of over 60% in size", "conditions": "A549 ARE-Fluc reporter, luciferase luminescence, 18-24 h; activity change, negative = inhibition: at 46 µM (top of the series)", "summary_of_the_method": "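Cells were seeded and rested 2 h, then exposed to compounds for 18-24 h. CellTiter-Fluor was read first as a viability measure. BugLite was added 15 min before the final luminescent read of ARE-luciferase activity in A549 cells.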", "values": [{"molecule": "COc1cc2[nH]c(=O)n(Cc3ccc(C(=O)NCCCN4CCN(C)CC4)cc3)c(=O)c2cc1OC", "activity change, negative = inhibition": "inactive: 10.6%"}, {"molecule": "Cc1cc(C(=O)OCC(=O)Nc2ccc(F)cc2)c(C)o1", "Potency": "inconclusive: 32.6 µM [falling, single point]"}, {"molecule": "CCOC(=O)[C@H]1[C@H]2COc3ccc(Br)cc3[C@@H]2N2C(=O)c3ccc(Cl)cc3NC(=O)[C@@]12C", "Potency": "inconclusive: 18.4 µM [falling, single point]"}, {"molecule": "CCc1c(C#N)c(SCCC(=O)Nc2cccc(OC)c2)nc2c1C(=O)CC(C)(C)C2", "Potency": "inconclusive: 29.1 µM [falling, single point]"}, {"molecule": "CCn1c(COc2ccccc2)nc2ccccc21", "activity change, negative = inhibition": "inactive: 5.03%"}, {"molecule": "CN1CCCC1CCNC1C2CC3CC(C2)CC1C3", "note": "(stereo unspecified)", "Potency": "inconclusive: 25.9 µM [activator, single point]"}, {"molecule": "O=C(O)CCC(=O)N1CCN(c2nc(-c3ccccc3)c3ccccc3n2)CC1", "Potency": "inconclusive: 32.6 µM [falling, single point]"}, {"molecule": "Cc1cccc(C(=O)NCC(=O)N2CCN(S(=O)(=O)c3ccc4c(c3)OCCO4)CC2)c1", "Potency": "inconclusive: 32.6 µM [falling, partial curve, poor fit]"}, {"molecule": "Cc1ccccc1-c1cc(C(=O)N2CCCC2)c2ccccc2n1", "Potency": "inconclusive: 0.731 µM [falling, full curve]"}, {"molecule": "COc1cccc2sc(Nc3nc(C)c(C(C)=O)s3)nc12", "Potency": "inconclusive: 14.6 µM [activator, partial curve]"}, {"molecule": "CCCc1ccc2oc(C(=O)N3CCC(COC)C3)c(C)c2c1", "note": "(stereo unspecified)", "Potency": "inconclusive: 6.51 µM [activator, partial curve]"}, {"molecule": "Cc1ccc(NC(=O)c2nsc(Cl)c2Cl)cc1", "Potency": "inconclusive: 3.26 µM [activator, full curve]"}, {"molecule": "CSC1=NSC2=NC(=O)/C(=C/c3coc4ccc(O)cc4c3=O)C(=N)N12", "activity change, negative = inhibition": "inactive: 3.43%"}, {"molecule": "O=C(Nc1ccc2c(c1)OCCO2)N1CCN(c2ccc(F)cc2)CC1", "Potency": "inconclusive: 18.4 µM [falling, single point]"}, {"molecule": "Cc1cc2c(cc1S(=O)(=O)NCC(C)c1ccccc1)n(C)c(=O)c(=O)n2C", "note": "(stereo unspecified)", "Potency": "inconclusive: 9.2 µM [falling, partial curve]"}, {"molecule": "CC[C@@H](C)C(NC(=O)OC(C)(C)C)c1cn([C@@H](CCC(=O)OC(C)(C)C)C(=O)N2CCN(C(=O)OC(C)(C)C)CC2)nn1", "note": "(stereo partly specified)", "Potency": "inconclusive: 29.1 µM [falling, single point]"}, {"molecule": "COc1ccccc1N1CCN(C(=O)C2CCCN(S(=O)(=O)c3ccc4c(c3)oc(=O)n4C)C2)CC1", "note": "(stereo unspecified)", "Potency": "inconclusive: 18.4 µM [falling, single point]"}, {"molecule": "O=C(Nc1ccc2oc(=O)ccc2c1)c1ccc(-c2cccc(Cl)c2)o1", "Potency": "active: 18.4 µM"}, {"molecule": "O=C(NCc1cccnc1)c1cnc2ccccc2n1", "Potency": "inconclusive: 23.1 µM [activator, partial curve, poor fit]"}, {"molecule": "O=C(O)c1ccc(-c2noc(-c3ccccc3F)n2)cc1", "Potency": "inconclusive: 3.66 µM [activator, partial curve, poor fit] and inconclusive: 461 nM [activator, full curve] and inconclusive: 326 nM [activator, full curve]"}, {"molecule": "N/C(=N\\OC(=O)C12CC3CC(CC(C3)C1)C2)c1ccncc1", "Potency": "inconclusive: 23.1 µM [activator, single point]"}, {"molecule": "Cc1csc2c(=O)sc(NC(=O)c3ccc(F)cc3Cl)nc12", "Potency": "inconclusive: 14.6 µM [falling, partial curve, poor fit]"}, {"molecule": "Cc1nn(CCCC(=O)Nc2cc(Oc3ccc(F)cc3)cc([N+](=O)[O-])c2)c(C)c1[N+](=O)[O-]", "Potency": "inconclusive: 16.4 µM [falling, single point]"}, {"molecule": "Cc1cc(C(=O)NC2CCCCC2)c(C)n1-c1ccc(F)cc1", "Potency": "inconclusive: 9.2 µM [activator, partial curve]"}, {"molecule": "Cc1ccc(NC(=O)c2nc[nH]c2C(=O)NCCCCCCNC(=O)c2[nH]cnc2C(=O)Nc2ccc(C)cc2)cc1", "Potency": "inconclusive: 29.1 µM [falling, single point]"}, {"molecule": "COc1cc(OC)c2ccc(=O)oc2c1C(CC(=O)N1CCCC1)c1ccc2c(c1)OCO2", "note": "(stereo unspecified)", "Potency": "inactive"}, {"molecule": "COc1cccc(-c2nnc(-c3ccc(C(F)(F)F)cc3)o2)c1", "Potency": "inconclusive: 10.3 µM [activator, partial curve]"}, {"molecule": "CCOC(OCC)c1ccc(/C=C\\c2nccc(N)n2)cc1", "Potency": "inconclusive: 29.1 µM [activator, single point]"}, {"molecule": "COC(=O)c1cccc(COC(=O)c2ccccc2NC(=O)c2ccco2)c1", "Potency": "inconclusive: 3.66 µM [falling, partial curve, poor fit]"}, {"molecule": "Cc1c(Cc2ccccc2)c(=O)oc2c(C)c(OCC(=O)NCC3CCC(C(=O)O)CC3)ccc12", "note": "(stereo unspecified)", "activity change, negative = inhibition": "inactive: -16.9%"}, {"molecule": "O=C(Nc1nc2ccsc2c(=O)s1)c1ccc(F)cc1Cl", "Potency": "inconclusive: 4.11 µM [activator, partial curve, poor fit]"}, {"molecule": "Cc1cccc(C(=O)N2CCC(=O)N(C(COCc3cccc(C(F)(F)F)c3)Cc3ccccc3)CC2)c1", "note": "(stereo unspecified)", "Potency": "inconclusive: 32.6 µM [falling, single point]"}, {"molecule": "O=C(Nc1cc(S(=O)(=O)N2CCCCC2)ccc1Cl)c1ccccc1NS(=O)(=O)c1ccc(F)cc1", "Potency": "active: 3.66 µM"}, {"molecule": "Cc1ccc(CC(=O)Nc2c(C(=O)N3CCN(c4ccccc4)CC3)oc3ccccc23)cc1", "Potency": "inconclusive: 32.6 µM [falling, single point]"}, {"molecule": "COc1cc(OC)c2c(-c3ccccc3)cc(=O)oc2c1C(CC(=O)N1CCCC1)c1ccc(N(C)C)cc1", "note": "(stereo unspecified)", "Potency": "inconclusive: 25.9 µM [falling, single point]"}, {"molecule": "CC(C)Oc1ccc(Br)cc1/C=N\\NC(N)=S", "Potency": "inconclusive: 23.1 µM [falling, single point]"}, {"molecule": "CCc1nnc(NC(=S)Nc2ccccc2)s1", "Potency": "inconclusive: 4.61 µM [activator, partial curve, poor fit]"}, {"molecule": "CCOc1ccc(-c2cc(C(=O)NCCc3ccccc3)c3c(-c4ccc(C)cc4)[nH]nc3n2)cc1", "Potency": "inconclusive: 23.1 µM [activator, partial curve]"}, {"molecule": "CCOCCc1nnc(NC(=O)C2CCN(C(=O)c3ccco3)CC2)s1", "Potency": "inconclusive: 2.91 µM [falling, partial curve, poor fit]"}, {"molecule": "CCN(CC)c1cc(C)c2cc(NC(=O)/C=C/c3ccccc3OC(C)C)ccc2n1", "activity change, negative = inhibition": "inactive: -4.7% [at 9.27 µM]"}, {"molecule": "Cc1ccc(Oc2nc3ccccn3c(=O)c2/C=C(\\C#N)c2nc3ccccc3s2)c(C)c1", "activity change, negative = inhibition": "inactive: 10.5%"}, {"molecule": "CC1CCN(c2nc3c(c(=O)n(C)c(=O)n3C)n2CCSc2nc3ccccc3s2)CC1", "Potency": "inconclusive: 4.11 µM [falling, full curve, poor fit]"}, {"molecule": "CCn1nc(C(=O)Nc2ccccc2N2CCCC2)c2ccccc2c1=O", "Potency": "inconclusive: 32.6 µM [falling, partial curve, poor fit]"}, {"molecule": "COc1cccc(/C=N/NC(=O)c2ccccc2)c1OS(=O)(=O)c1ccccc1", "Potency": "inconclusive: 29.1 µM [falling, single point]"}, {"molecule": "CC1(C)CC(=O)c2ccc(OCc3ccc([N+](=O)[O-])cc3)cc2O1", "Potency": "inconclusive: 13 µM [activator, partial curve]"}, {"molecule": "O=C(NNC(=S)Nc1ccc(Cl)cc1)c1cccs1", "activity change, negative = inhibition": "inactive: 17.4%"}, {"molecule": "Cc1cc(-c2ccc(C)c(S(=O)(=O)N3c4ccccc4CC3C)c2)on1", "note": "(stereo unspecified)", "Potency": "inconclusive: 29.1 µM [falling, single point]"}, {"molecule": "Cc1nc(N/C(N)=N/S(=O)(=O)c2ccccc2)nc2ccccc12", "Potency": "inconclusive: 23.1 µM [falling, single point]"}, {"molecule": "CCN1CCN(CCNC(=O)c2ccc(/C=C3/Sc4ccccc4N(Cc4ccccc4C)C3=O)cc2)CC1", "Potency": "inconclusive: 29.1 µM [falling, single point]"}, {"molecule": "Cc1ccc(NC(=S)c2nc3ccccc3[nH]2)c(C)c1", "Potency": "inconclusive: 2.59 µM [activator, full curve]"}, {"molecule": "CCc1c(C)nc2nncn2c1NCc1ccc(OC)cc1", "Potency": "inconclusive: 20.6 µM [falling, single point]"}, {"molecule": "Cc1[nH]c2ccc(CNS(=O)(=O)c3ccc(S(=O)(=O)N4CCOCC4)cc3)cc2c1C", "Potency": "inconclusive: 0.0041 µM [falling, full curve, poor fit]"}, {"molecule": "O=[N+]([O-])c1ncccc1OCc1ccc(-c2ccccc2)cc1", "Potency": "inconclusive: 18.4 µM [falling, single point]"}, {"molecule": "Cc1ccoc1C(=O)Nc1ccc(CC(=O)O)cc1", "Potency": "active: 1.03 µM"}, {"molecule": "O=C(CN1CCCSc2ccccc21)N1CCN(S(=O)(=O)c2ccccc2)CC1", "activity change, negative = inhibition": "inactive: -12.5%"}, {"molecule": "CCCCN(C)C(=O)c1cc2cc3ccc(OC)cc3nc2s1", "Potency": "inconclusive: 0.164 µM [activator, full curve, poor fit]"}, {"molecule": "O=C(CSc1nc2ccccc2o1)Nc1ccc(N2CCOCC2)c(Cl)c1", "Potency": "inconclusive: 10.3 µM [activator, partial curve, poor fit]"}, {"molecule": "O=C(/C=C/c1ccccc1)c1ccc2c(c1)OCCCCO2", "Potency": "inconclusive: 8.2 µM [activator, partial curve]"}, {"molecule": "O=C(Nc1cccnc1)c1ccc(Cl)c(S(=O)(=O)N2CCCCC2)c1", "Potency": "inconclusive: 18.4 µM [falling, partial curve, poor fit]"}, {"molecule": "CCc1ccc(CN(C)C(=O)c2cc(=O)c3ccccc3o2)cc1", "Potency": "inconclusive: 20.6 µM [falling, partial curve]"}, {"molecule": "CCCCOc1ccc(CSc2n[nH]c(C)n2)cc1", "Potency": "inconclusive: 29.1 µM [falling, single point]"}]}]}
